# The other results are listed elsewhere or left out.
# Experiments:
# Assay in all cases: glycan array binding signal (z-score within array); higher = stronger binding
# Settings in all cases: glycan notation: IUPAC condensed, linker removed
# [1] = biological target: Gal(b1-3)[Fuc(a1-4)]GlcNAc(b1-3)Gal(b1-4)[Fuc(a1-3)]GlcNAc
# How it was run: (§1)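 Glycan array data came from 3228 arrays in the Consortium for Functional Glycomics database, and only arrays with an available protein sequence were kept. Glycan names were put into IUPAC-condensed notation, and columns mapping to the same glycan were averaged. The binding signal is a within-array Z-score, averaged across arrays of one protein sequence run at different concentrations or buffers and across linkers. A negative Z-score can be read as non-binding.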
# [2] = biological target: Gal(b1-3)[Fuc(a1-4)]GlcNAc(b1-6)GalNAc
# How it was run: as §1
# [3] = biological target: Gal(b1-3)[GlcNAc(b1-6)]GalNAc
# How it was run: as §1
# [4] = biological target: Gal(b1-3)[Neu5Ac(a2-6)]GalNAc
# How it was run: as §1
# [5] = biological target: Gal(b1-3)[Neu5Ac(a2-6)]GlcNAc(b1-4)Gal(b1-4)Glc
# How it was run: as §1
# [6] = biological target: Gal(b1-3)[Neu5Ac(a2-6)]GlcNAc(b1-6)Gal(b1-4)Glc
# How it was run: as §1
# [7] = biological target: Gal(b1-3)[Neu5Ac(b2-6)]GalNAc
# How it was run: as §1
# [8] = biological target: Gal(b1-4)Gal
# How it was run: as §1
# [9] = biological target: Gal(b1-4)GalNAc(a1-3)[Fuc(a1-2)]Gal(b1-4)GlcNAc
# How it was run: as §1
# [10] = biological target: Gal(b1-4)GalNAc(b1-3)[Fuc(a1-2)]Gal(b1-4)GlcNAc
# How it was run: as §1
# [11] = biological target: Gal(b1-4)Glc
# How it was run: as §1
# [12] = biological target: Gal(b1-4)Glc6S
# How it was run: as §1
# [13] = biological target: Gal(b1-4)GlcNAc
# How it was run: as §1
# [14] = biological target: Gal(b1-4)GlcNAc(a1-6)Gal(b1-4)GlcNAc
# How it was run: as §1
# [15] = biological target: Gal(b1-4)GlcNAc(b1-2)Man
# How it was run: as §1
# [16] = biological target: Gal(b1-4)GlcNAc(b1-2)Man(a1-3)Man(b1-4)GlcNAc(b1-4)GlcNAc
# How it was run: as §1
# [17] = biological target: Gal(b1-4)GlcNAc(b1-2)Man(a1-3)[Gal(b1-4)GlcNAc(b1-2)Man(a1-6)]Man(b1-4)GlcNAc(b1-4)GlcNAc
# How it was run: as §1
# [18] = biological target: Gal(b1-4)GlcNAc(b1-2)Man(a1-3)[Gal(b1-4)GlcNAc(b1-2)Man(a1-6)]Man(b1-4)GlcNAc(b1-4)[Fuc(a1-6)]GlcNAc
# How it was run: as §1
# [19] = biological target: Gal(b1-4)GlcNAc(b1-2)Man(a1-3)[Gal(b1-4)GlcNAc(b1-2)Man(a1-6)][Gal(b1-4)GlcNAc(b1-4)]Man(b1-4)GlcNAc(b1-4)[Fuc(a1-6)]GlcNAc
# How it was run: as §1
# [20] = biological target: Gal(b1-4)GlcNAc(b1-2)Man(a1-3)[Gal(b1-4)GlcNAc(b1-2)Man(a1-6)][GlcNAc(b1-4)]Man(b1-4)GlcNAc(b1-4)[Fuc(a1-6)]GlcNAc
# How it was run: as §1
# [21] = biological target: Gal(b1-4)GlcNAc(b1-2)Man(a1-3)[Gal(b1-4)GlcNAc(b1-2)][GlcNAc(b1-4)]Man(b1-4)GlcNAc(b1-4)GlcNAc
# How it was run: as §1
# [22] = biological target: Gal(b1-4)GlcNAc(b1-2)Man(a1-3)[GlcNAc(b1-2)Man(a1-6)]Man(b1-4)GlcNAc(b1-4)GlcNAc
# How it was run: as §1
# [23] = biological target: Gal(b1-4)GlcNAc(b1-2)Man(a1-3)[GlcNAc(b1-4)][Gal(b1-4)GlcNAc(b1-2)Man(a1-6)]Man(b1-4)GlcNAc(b1-4)GlcNAc
# How it was run: as §1
# [24] = biological target: Gal(b1-4)GlcNAc(b1-2)Man(a1-3)[Man(a1-6)]Man(b1-4)GlcNAc(b1-4)GlcNAc
# How it was run: as §1
# [25] = biological target: Gal(b1-4)GlcNAc(b1-2)Man(a1-6)Man(b1-4)GlcNAc(b1-4)GlcNAc
# How it was run: as §1
# [26] = biological target: Gal(b1-4)GlcNAc(b1-2)Man(a1-6)[GlcNAc(b1-2)Man(a1-3)]Man(b1-4)GlcNAc(b1-4)GlcNAc
# How it was run: as §1
# [27] = biological target: Gal(b1-4)GlcNAc(b1-2)Man(a1-6)[Man(a1-3)]Man(b1-4)GlcNAc(b1-4)GlcNAc
# How it was run: as §1
# [28] = biological target: Gal(b1-4)GlcNAc(b1-2)[Gal(b1-4)GlcNAc(b1-4)]Man(a1-3)[Gal(b1-4)GlcNAc(b1-2)Man(a1-6)]Man(b1-4)GlcNAc(b1-4)GlcNAc
# How it was run: as §1
# [29] = biological target: Gal(b1-4)GlcNAc(b1-2)[Gal(b1-4)GlcNAc(b1-4)]Man(a1-3)[Gal(b1-4)GlcNAc(b1-2)[Gal(b1-4)GlcNAc(b1-6)]Man(a1-6)]Man(b1-4)GlcNAc(b1-4)GlcNAc
# How it was run: as §1
# [30] = biological target: Gal(b1-4)GlcNAc(b1-2)[Gal(b1-4)GlcNAc(b1-4)]Man(a1-3)[GlcNAc(b1-4)][Gal(b1-4)GlcNAc(b1-2)Man(a1-6)]Man(b1-4)GlcNAc(b1-4)GlcNAc
# How it was run: as §1
# [31] = biological target: Gal(b1-4)GlcNAc(b1-2)[Gal(b1-4)GlcNAc(b1-4)]Man(a1-3)[GlcNAc(b1-4)][Gal(b1-4)GlcNAc(b1-2)[Gal(b1-4)GlcNAc(b1-6)]Man(a1-6)]Man(b1-4)GlcNAc(b1-4)GlcNAc
# How it was run: as §1
# [32] = biological target: Gal(b1-4)GlcNAc(b1-2)[Gal(b1-4)GlcNAc(b1-4)]Man(a1-3)[GlcNAc(b1-4)][Gal(b1-4)GlcNAc(b1-2)[Gal(b1-4)GlcNAc(b1-6)]Man(a1-6)]Man(b1-4)GlcNAc(b1-4)[Fuc(a1-6)]GlcNAc
# How it was run: as §1
# [33] = biological target: Gal(b1-4)GlcNAc(b1-2)[Gal(b1-4)GlcNAc(b1-6)]Man(a1-6)[Gal(b1-4)GlcNAc(b1-2)Man(a1-3)]Man(b1-4)GlcNAc(b1-4)GlcNAc
# How it was run: as §1
# [34] = biological target: Gal(b1-4)GlcNAc(b1-2)[Gal(b1-4)GlcNAc(b1-6)]Man(a1-6)[Gal(b1-4)GlcNAc(b1-2)Man(a1-3)]Man(b1-4)GlcNAc(b1-4)[Fuc(a1-6)]GlcNAc
# How it was run: as §1
# [35] = biological target: Gal(b1-4)GlcNAc(b1-2)[Gal(b1-4)GlcNAc(b1-6)]Man(a1-6)[GlcNAc(b1-4)][Gal(b1-4)GlcNAc(b1-2)Man(a1-3)]Man(b1-4)GlcNAc(b1-4)GlcNAc
# How it was run: as §1
# [36] = biological target: Gal(b1-4)GlcNAc(b1-2)[Gal(b1-4)GlcNAc(b1-6)]Man(a1-6)[GlcNAc(b1-4)][Gal(b1-4)GlcNAc(b1-2)[Gal(b1-4)GlcNAc(b1-4)]Man(a1-3)]Man(b1-4)GlcNAc(b1-4)[Fuc(a1-6)]GlcNAc
# How it was run: as §1
# [37] = biological target: Gal(b1-4)GlcNAc(b1-3)Gal(b1-3)GalNAc
# How it was run: as §1
# [38] = biological target: Gal(b1-4)GlcNAc(b1-3)Gal(b1-3)GlcNAc
# How it was run: as §1
# [39] = biological target: Gal(b1-4)GlcNAc(b1-3)Gal(b1-4)Glc
# How it was run: as §1
# [40] = biological target: Gal(b1-4)GlcNAc(b1-3)Gal(b1-4)GlcNAc
# How it was run: as §1
# [41] = biological target: Gal(b1-4)GlcNAc(b1-3)Gal(b1-4)GlcNAc(b1-2)Man(a1-3)[Gal(b1-4)GlcNAc(b1-3)Gal(b1-4)GlcNAc(b1-2)Man(a1-6)]Man(b1-4)GlcNAc(b1-4)GlcNAc
# How it was run: as §1
# [42] = biological target: Gal(b1-4)GlcNAc(b1-3)Gal(b1-4)GlcNAc(b1-2)Man(a1-3)[Gal(b1-4)GlcNAc(b1-3)Gal(b1-4)GlcNAc(b1-2)Man(a1-6)]Man(b1-4)GlcNAc(b1-4)[Fuc(a1-6)]GlcNAc
# How it was run: as §1
# [43] = biological target: Gal(b1-4)GlcNAc(b1-3)Gal(b1-4)GlcNAc(b1-2)[Gal(b1-4)GlcNAc(b1-3)Gal(b1-4)GlcNAc(b1-6)]Man(a1-6)[Gal(b1-4)GlcNAc(b1-3)Gal(b1-4)GlcNAc(b1-2)Man(a1-3)]Man(b1-4)GlcNAc(b1-4)GlcNAc
# How it was run: as §1
# [44] = biological target: Gal(b1-4)GlcNAc(b1-3)Gal(b1-4)GlcNAc(b1-2)[Gal(b1-4)GlcNAc(b1-3)Gal(b1-4)GlcNAc(b1-6)]Man(a1-6)[Gal(b1-4)GlcNAc(b1-3)Gal(b1-4)GlcNAc(b1-2)Man(a1-3)]Man(b1-4)GlcNAc(b1-4)[Fuc(a1-6)]GlcNAc
# How it was run: as §1
# [45] = biological target: Gal(b1-4)GlcNAc(b1-3)Gal(b1-4)GlcNAc(b1-3)Gal(b1-4)GlcNAc
# How it was run: as §1
binder,measurement,setting,value
"Gal 10 (Homo sapiens), Q05315 (protein) MSLLPVPYTEAASLSTGSTVTIKGRPLVCFLNEPYLQVDFHTEMKEESDIVFHFQVCFGRRVVMNSREYGAWKQQVESKNMPFQDGQEFELSISVLPDKYQVMVNGQSSYTFDHRIKPEAVKMVQVWRDISLTKFNVSYLKR",glycan array binding signal (z-score),[1],0.069
same,glycan array binding signal (z-score),[2],0.642
same,glycan array binding signal (z-score),[3],-0.202
same,glycan array binding signal (z-score),[4],-0.442
same,glycan array binding signal (z-score),[5],-0.744
same,glycan array binding signal (z-score),[6],-0.538
same,glycan array binding signal (z-score),[7],0.059
same,glycan array binding signal (z-score),[8],0.086
same,glycan array binding signal (z-score),[9],0.152
same,glycan array binding signal (z-score),[10],-1.26
same,glycan array binding signal (z-score),[11],-0.206
same,glycan array binding signal (z-score),[12],-0.347
same,glycan array binding signal (z-score),[13],-0.261
same,glycan array binding signal (z-score),[14],0.29
same,glycan array binding signal (z-score),[15],-0.206
same,glycan array binding signal (z-score),[16],-0.452
same,glycan array binding signal (z-score),[17],-0.112
same,glycan array binding signal (z-score),[18],-0.548
same,glycan array binding signal (z-score),[19],0.399
same,glycan array binding signal (z-score),[20],-0.722
same,glycan array binding signal (z-score),[21],0.708
same,glycan array binding signal (z-score),[22],-0.365
same,glycan array binding signal (z-score),[23],-0.57
same,glycan array binding signal (z-score),[24],-0.774
same,glycan array binding signal (z-score),[25],0.316
same,glycan array binding signal (z-score),[26],0.321
same,glycan array binding signal (z-score),[27],0.817
same,glycan array binding signal (z-score),[28],-0.513
same,glycan array binding signal (z-score),[29],0.721
same,glycan array binding signal (z-score),[30],-0.708
same,glycan array binding signal (z-score),[31],1.01
same,glycan array binding signal (z-score),[32],-0.793
same,glycan array binding signal (z-score),[33],0.78
same,glycan array binding signal (z-score),[34],0.643
same,glycan array binding signal (z-score),[35],-0.127
same,glycan array binding signal (z-score),[36],-0.369
same,glycan array binding signal (z-score),[37],-0.642
same,glycan array binding signal (z-score),[38],-0.431
same,glycan array binding signal (z-score),[39],-0.335
same,glycan array binding signal (z-score),[40],0.264
same,glycan array binding signal (z-score),[41],0.012
same,glycan array binding signal (z-score),[42],2.05
same,glycan array binding signal (z-score),[43],1.43
same,glycan array binding signal (z-score),[44],2.23
same,glycan array binding signal (z-score),[45],-1.01

# Fetched one by one from above:
binder,measurement,setting,value
"Gal 10 (Homo sapiens), Q05315 (protein) MSLLPVPYTEAASLSTGSTVTIKGRPLVCFLNEPYLQVDFHTEMKEESDIVFHFQVCFGRRVVMNSREYGAWKQQVESKNMPFQDGQEFELSISVLPDKYQVMVNGQSSYTFDHRIKPEAVKMVQVWRDISLTKFNVSYLKR",glycan array binding signal (z-score),[38],-0.431
same,glycan array binding signal (z-score),[32],-0.793
same,glycan array binding signal (z-score),[4],-0.442
same,glycan array binding signal (z-score),[40],0.264
